The text below walks through data of article PMC6925144, “A prospective compound screening contest identified broader inhibitors for Sirtuin 1” (Scientific Reports, 2019).

The chains behind the UniProt entries cited, without tags or fusion partners. Residues count along the entry.
UniProt Q96EB6, 2-747 limits assumed: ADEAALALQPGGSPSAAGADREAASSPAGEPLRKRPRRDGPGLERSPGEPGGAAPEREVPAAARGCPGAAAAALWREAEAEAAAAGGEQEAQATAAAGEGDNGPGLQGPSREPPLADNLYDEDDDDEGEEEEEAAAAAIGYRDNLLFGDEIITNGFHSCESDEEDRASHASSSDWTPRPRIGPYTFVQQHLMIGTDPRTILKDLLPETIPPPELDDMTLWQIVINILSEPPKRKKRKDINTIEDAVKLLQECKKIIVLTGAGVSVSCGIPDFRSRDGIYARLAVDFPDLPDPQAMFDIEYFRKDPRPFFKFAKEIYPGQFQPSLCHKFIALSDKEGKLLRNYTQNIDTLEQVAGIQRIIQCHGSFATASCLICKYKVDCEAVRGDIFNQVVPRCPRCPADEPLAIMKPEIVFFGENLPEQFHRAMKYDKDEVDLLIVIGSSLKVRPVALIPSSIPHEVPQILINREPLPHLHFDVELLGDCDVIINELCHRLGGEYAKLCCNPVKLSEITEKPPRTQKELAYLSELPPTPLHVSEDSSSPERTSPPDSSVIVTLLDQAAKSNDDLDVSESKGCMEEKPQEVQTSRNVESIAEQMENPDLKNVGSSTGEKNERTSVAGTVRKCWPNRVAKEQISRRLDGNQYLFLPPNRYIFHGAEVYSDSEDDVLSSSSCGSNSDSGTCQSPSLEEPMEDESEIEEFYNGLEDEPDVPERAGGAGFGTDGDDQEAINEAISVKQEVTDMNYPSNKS

The full ranking holds about 3,200 compounds; the median of “TSA(with NAD+) / Primary screening (TSA) / delta Tm (K)” is about -0.04, and the highest 2% start at about 0.37. The list shows a part of the results.

The target in the experiment is NAD-dependent deacetylase Sirtuin 1 (human, UniProt Q96EB6). Put plainly: primary screen, delta tm. Also noted: single well (n = 1, as 'the same TSA'). The note with it: 10 µM.
In the case of `COc1ccc(-c2csc3nc(C)nc(N4CCN(C5CCS(=O)(=O)C5)CC4)c23)cc1OC` (stereo not shown), the “TSA(with NAD+) / Primary screening (TSA) / delta Tm (K)” value is listed as -0.09 K.
Take `O=C1CCCCC(C(=O)Nc2ccc(-c3nc4ccccc4[nH]3)cc2)N1` (stereo not shown): the “TSA(with NAD+) / Primary screening (TSA) / delta Tm (K)” value was 0.16 K.
The result for `CCOc1ccc2nc(NN=C3C(=O)NC(=S)NC3=O)sc2c1` reads -0.02 K.
As for `O=c1cc(CSc2nnc(Nc3ccccc3)s2)c2ccc(O)cc2o1`, the “TSA(with NAD+) / Primary screening (TSA) / delta Tm (K)” value is listed as 0.13 K.
For `COc1ccc(O)c(/C(C)=N/Nc2nc(C)cc(O)n2)c1` the value was -0.03 K; for `NC(=O)c1ccc(NC(=O)c2cc(-c3ccccc3)nc3ccccc23)cc1`, -0.01 K; for `COC(=O)NC(CC(C)C)C(=O)NCc1cc(C)nc2ccccc12` (stereo not shown), -0.06 K.
Take `CCOCCCN1C(=O)/C(=C/c2c(N3CCC(C)CC3)nc3ccc(C)cn3c2=O)SC1=S`: the “TSA(with NAD+) / Primary screening (TSA) / delta Tm (K)” value amounted to 0.07 K.
The result for `c1ccc(-c2cnc(CSc3nc4ccccc4o3)o2)cc1` reads -0.02 K; that for `COc1ccc(OC)c2c1CN(C(C)c1nc(C3CC3)no1)CC2O` (stereo not shown), -0.08 K.
On to `CN(Cc1ccc(F)cc1)c1cc(=O)n2ccccc2n1`, for which the “TSA(with NAD+) / Primary screening (TSA) / delta Tm (K)” value is recorded as -0.01 K.
The result for `CCC(N)CC(=O)O` (stereo not shown) reads -0.22 K; that for `C=CCOc1cccc(C2C(C(=O)c3ccc(C)o3)=C(O)C(=O)N2CCCN2CCOCC2)c1` (stereo not shown), -0.06 K.
As for `CCc1c(C)nc2ccccc2c1N1CCN2C(=O)C(=O)NCC2C1` (stereo not shown), the “TSA(with NAD+) / Primary screening (TSA) / delta Tm (K)” value is given as -0.11 K.
For `CC1(C)C(NC(=O)C2CC(c3cccc(F)c3)=NO2)C2CCOC21` (stereo not shown) the value was -0.14 K; for `N#C/C(=C/c1ccc(-c2cccc(Cl)c2)o1)C(=O)Nc1cccc2ncccc12`, 0.07 K.
As to `O=C(Nc1ccc(S(=O)(=O)N2CCOCC2)cc1)C1=COCCO1`, the “TSA(with NAD+) / Primary screening (TSA) / delta Tm (K)” value was -0.11 K.
For `COc1ccc(/C=N/c2ccc(C(=O)O)cc2)cc1Br` the value was -0.19 K; for `Cc1ccc(S(=O)(=O)N2CCN(C(=O)CSc3nnc(NCc4ccco4)s3)CC2)cc1`, -0.03 K; for `Cc1nc2c(C(N)=O)ncn2c(C)c1CCC(=O)NCCSc1ccccc1`, 0.01 K.
The result for `Cc1ccc(S(=O)(=O)NCc2ccco2)cc1C(=O)NCc1ccccc1-n1cccn1` reads -0.24 K.
For `CN(C)c1c(F)cc(C(=N)N)cc1F` the value was -0.11 K; for `CC(=O)c1sc(NC(=O)c2cnc3ccccc3n2)nc1-c1ccccc1`, 0.09 K.
`CCO/C=C1/C(=O)N(c2ccc(S(=O)(=O)N3CCOCC3)cc2)C(=O)c2ccccc21`: the “TSA(with NAD+) / Primary screening (TSA) / delta Tm (K)” value is given as -0.05 K.
For `O=C(CCn1[nH]c(=O)ccc1=O)Nc1cccc2cccnc12` the value was -0.11 K; for `C=CCOc1ccc(C(=O)C2=C(O)C(=O)N(CCCN3CCOCC3)C2c2ccc(F)cc2)cc1` (stereo not shown), -0.11 K.
With `Fc1ccc2[nH]cc(C3CCNCC3)c2c1`, the “TSA(with NAD+) / Primary screening (TSA) / delta Tm (K)” value is recorded as -0.11 K.
For `CSCCOC(=O)c1ccc2[nH]c(C(F)F)nc2c1` the value was -0.21 K.
`c1nc(N2CCNCC2)c2sccc2n1`: the “TSA(with NAD+) / Primary screening (TSA) / delta Tm (K)” value is reported as -0.01 K.
On to `CCCOc1cccc(C2C(C(=O)c3ccc(C)o3)=C(O)C(=O)N2CCCN2CCOCC2)c1` (stereo not shown), for which the “TSA(with NAD+) / Primary screening (TSA) / delta Tm (K)” value was -0.12 K.
Consider `CCCCc1ccc(Nc2nnc(SCC(=O)Nc3ccc(N4CCN(Cc5ccccc5)CC4)cc3)s2)cc1`, for which the “TSA(with NAD+) / Primary screening (TSA) / delta Tm (K)” value is listed as 0.02 K.
On to `CC(C)c1nnc(S)[nH]1`, for which the “TSA(with NAD+) / Primary screening (TSA) / delta Tm (K)” value is reported as -0.03 K.
Take `COCCN(CC(=O)Nc1ccccc1C(F)(F)F)C(=O)Cc1csc(-c2ccsc2)n1`: the “TSA(with NAD+) / Primary screening (TSA) / delta Tm (K)” value is -0.06 K.
For `NC(=O)C1CCN(c2ncnc3sc4c(c23)CCC4)CC1` the value was -0.04 K.
The result for `CC(Nc1cccc(C(N)=O)c1)C1CN(Cc2ccccc2)CCO1` (stereo not shown) reads -0.15 K; that for `COC(=O)c1ccc2[nH]c3c(c2c1)CN(C(=O)C(C)C)CC3`, 0.07 K.
For `COc1ccc(-c2cc(NC(=O)CCNC(=O)c3ccc(Cl)cc3)ccc2OC(F)F)cc1` the value was 0.45 K; for `c1ccc2c(c1)CCC/C2=N/Nc1nc2ccccc2[nH]1`, -0.15 K.
`CC(OC(=O)c1ccccc1NS(=O)(=O)c1ccc2c(c1)OCCO2)C(=O)NC(C)C1CC2CCC1C2` (stereo not shown): the “TSA(with NAD+) / Primary screening (TSA) / delta Tm (K)” value was -0.11 K.
The result for `CC(C)(C)CC(NCc1ccc(S(=O)(=O)CCO)cc1)C1CC1` (stereo not shown) reads -0.14 K.
In the case of `CSc1nnnn1-c1cccc(NC(=O)NC(C)C2CCCO2)c1` (stereo not shown), the “TSA(with NAD+) / Primary screening (TSA) / delta Tm (K)” value is -0.02 K.
The result for `c1ccc(-n2ncc3c(N4CCCC4)ncnc32)cc1` reads 0.02 K; that for `O=C(NCCS(=O)(=O)N1CCc2ccccc21)Nc1ccn(Cc2ccccc2)n1`, -0.03 K; that for `CC(NC(=O)Cn1ccc(=O)c2ccccc21)C12CC3CC(CC(C3)C1)C2` (stereo not shown), -0.01 K.
The result for `Cc1nc2cc(C(=O)Nc3ccc(NC(=O)N4CCCCCC4)cc3)ccc2n1C` reads 0.07 K.
In the case of `N#Cc1ccccc1S(=O)(=O)N1CCCC(c2cc(C(N)=O)[nH]n2)C1` (stereo not shown), the “TSA(with NAD+) / Primary screening (TSA) / delta Tm (K)” value is on record as -0.18 K.
